PubChem BioAssay AID504764, Drosophila RNAi Screening Center, 2011

Assay: 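Knock-downs that raise or lower a Notch target reporter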 (primary screen)
Cells: Drosophila Kc167 cells
Reagents: long dsRNA against Drosophila genes
Duration: about 5 days (4 days dsRNA, then 24 h after transfection)
Conditions: transfection of constitutively active membrane-tethered Notch lacking the extracellular domain, read 24 h later
Measured: 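Light from a Notch-responsive E(spl)m3 luciferase reporter under active Notch, with control-promoter and no-Notch reporter wells to normalise; raw counts from paired wells a and b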
Direction: induced reporter light, run 1, well a and induced reporter light, run 1, well b: higher = more light from the Notch target reporter with active Notch; control promoter light, run 1, well a and control promoter light, run 1, well b: higher = more light from the viral control promoter (cell number, transfection, viability); uninduced reporter light, run 1, well a: higher = more light from the Notch target reporter without active Notch
Hit rule: 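Wells with low control signal or poorly matching duplicates excluded; duplicates averaged; per source plate, z beyond ±2 for induced/control log2 ratio or beyond ±1.8 for induced/uninduced marks a hit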
Meaning of the calls: active = modifier hit (raised or lowered Notch signal); inactive = not a hit
The screen tested about 22,000 reagents; below is a random part of those that have a named target and a result. Over the whole deposit, 403 (1.9%) were called active. 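Unnormalised raw counts per well; ratio z-scores behind the hit calls and whether each hit raises or lowers signal are not deposited.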 The numbers tell different reagents against one gene apart. The record does not give: the amount of reagent.

CG42749 #1
- induced reporter light, run 1, well a: 1.17e5
- induced reporter light, run 1, well b: 1.34e5
- control promoter light, run 1, well a: 1.92e5
- control promoter light, run 1, well b: 2.19e5
- uninduced reporter light, run 1, well a: 10200
- Outcome: inactive

CG42749 #2
- induced reporter light, run 1, well a: 1.53e5
- induced reporter light, run 1, well b: 1.43e5
- control promoter light, run 1, well a: 2.85e5
- control promoter light, run 1, well b: 2.41e5
- uninduced reporter light, run 1, well a: 10715
- Outcome: inactive

CG17991
- induced reporter light, run 1, well a: 79235
- induced reporter light, run 1, well b: 87095
- control promoter light, run 1, well a: 1.12e5
- control promoter light, run 1, well b: 1.07e5
- uninduced reporter light, run 1, well a: 8665
- Outcome: inactive

CG42613 #1
- induced reporter light, run 1, well a: 20992
- induced reporter light, run 1, well b: 19140
- control promoter light, run 1, well a: 26090
- control promoter light, run 1, well b: 25250
- uninduced reporter light, run 1, well a: 4215
- Outcome: inactive

CG42613 #2
- induced reporter light, run 1, well a: 2.04e5
- induced reporter light, run 1, well b: 1.91e5
- control promoter light, run 1, well a: 2.52e5
- control promoter light, run 1, well b: 2.68e5
- uninduced reporter light, run 1, well a: 17190
- Outcome: inactive

CG42613 #3
- induced reporter light, run 1, well a: 2.51e5
- induced reporter light, run 1, well b: 2.71e5
- control promoter light, run 1, well a: 3.15e5
- control promoter light, run 1, well b: 3.16e5
- uninduced reporter light, run 1, well a: 16790
- Outcome: inactive

CG32547 #1
- induced reporter light, run 1, well a: 1.55e5
- induced reporter light, run 1, well b: 99555
- control promoter light, run 1, well a: 1.14e5
- control promoter light, run 1, well b: 1.09e5
- uninduced reporter light, run 1, well a: 8570
- Outcome: inactive

CG32547 #2
- induced reporter light, run 1, well a: 1.37e5
- induced reporter light, run 1, well b: 1.45e5
- control promoter light, run 1, well a: 1.03e5
- control promoter light, run 1, well b: 96030
- uninduced reporter light, run 1, well a: 8435
- Outcome: inactive

CG32547 #3
- induced reporter light, run 1, well a: 85695
- induced reporter light, run 1, well b: 93015
- control promoter light, run 1, well a: 1.00e5
- control promoter light, run 1, well b: 86920
- uninduced reporter light, run 1, well a: 12405
- Outcome: inactive

CG32547 #4
- induced reporter light, run 1, well a: 44970
- induced reporter light, run 1, well b: 47510
- control promoter light, run 1, well a: 20085
- control promoter light, run 1, well b: 15355
- uninduced reporter light, run 1, well a: 18515
- Outcome: inactive

CG43901 #1
- induced reporter light, run 1, well a: 1.37e5
- induced reporter light, run 1, well b: 1.31e5
- control promoter light, run 1, well a: 3.11e5
- control promoter light, run 1, well b: 2.26e5
- uninduced reporter light, run 1, well a: 10655
- Outcome: inactive

CG43901 #2
- induced reporter light, run 1, well a: 29150
- induced reporter light, run 1, well b: 32870
- control promoter light, run 1, well a: 74135
- control promoter light, run 1, well b: 55635
- uninduced reporter light, run 1, well a: 4440
- Outcome: inactive

CG8319
- induced reporter light, run 1, well a: 74135
- induced reporter light, run 1, well b: 73610
- control promoter light, run 1, well a: 72340
- control promoter light, run 1, well b: 59880
- uninduced reporter light, run 1, well a: 5435
- Outcome: inactive

CG14693
- induced reporter light, run 1, well a: 46375
- induced reporter light, run 1, well b: 50185
- control promoter light, run 1, well a: 49550
- control promoter light, run 1, well b: 61490
- uninduced reporter light, run 1, well a: 3155
- Outcome: inactive

CG15034
- induced reporter light, run 1, well a: 1.21e5
- induced reporter light, run 1, well b: 1.30e5
- control promoter light, run 1, well a: 2.20e5
- control promoter light, run 1, well b: 2.34e5
- uninduced reporter light, run 1, well a: 10165
- Outcome: inactive

Gr43a (Gustatory receptor 43a)
- induced reporter light, run 1, well a: 2.25e5
- induced reporter light, run 1, well b: 1.60e5
- control promoter light, run 1, well a: 2.84e5
- control promoter light, run 1, well b: 2.30e5
- uninduced reporter light, run 1, well a: 16675
- Outcome: inactive

Arl1 (ADP ribosylation factor-like 1)
- induced reporter light, run 1, well a: 1.42e5
- induced reporter light, run 1, well b: 1.54e5
- control promoter light, run 1, well a: 1.85e5
- control promoter light, run 1, well b: 1.78e5
- uninduced reporter light, run 1, well a: 6930
- Outcome: inactive

CG8944
- induced reporter light, run 1, well a: 2.34e5
- induced reporter light, run 1, well b: 2.36e5
- control promoter light, run 1, well a: 2.66e5
- control promoter light, run 1, well b: 2.31e5
- uninduced reporter light, run 1, well a: 17370
- Outcome: inactive

Spg7 (Paraplegin)
- induced reporter light, run 1, well a: 1.01e5
- induced reporter light, run 1, well b: 87435
- control promoter light, run 1, well a: 1.38e5
- control promoter light, run 1, well b: 1.70e5
- uninduced reporter light, run 1, well a: 8465
- Outcome: inactive

GNBP2 (Gram-negative bacteria binding protein 2)
- induced reporter light, run 1, well a: 1.56e5
- induced reporter light, run 1, well b: 1.13e5
- control promoter light, run 1, well a: 95580
- control promoter light, run 1, well b: 89530
- uninduced reporter light, run 1, well a: 9530
- Outcome: inactive

CG34163
- induced reporter light, run 1, well a: 1.44e5
- induced reporter light, run 1, well b: 1.35e5
- control promoter light, run 1, well a: 1.55e5
- control promoter light, run 1, well b: 1.46e5
- uninduced reporter light, run 1, well a: 9925
- Outcome: inactive

CG33768
- induced reporter light, run 1, well a: 1.19e5
- induced reporter light, run 1, well b: 1.29e5
- control promoter light, run 1, well a: 1.26e5
- control promoter light, run 1, well b: 1.01e5
- uninduced reporter light, run 1, well a: 10195
- Outcome: inactive

CG8520
- induced reporter light, run 1, well a: 93380
- induced reporter light, run 1, well b: 78230
- control promoter light, run 1, well a: 79985
- control promoter light, run 1, well b: 75255
- uninduced reporter light, run 1, well a: 7060
- Outcome: inactive

CG7694
- induced reporter light, run 1, well a: 1.81e5
- induced reporter light, run 1, well b: 2.00e5
- control promoter light, run 1, well a: 1.86e5
- control promoter light, run 1, well b: 1.71e5
- uninduced reporter light, run 1, well a: 12165
- Outcome: inactive

A stretch taken from the entries so far:
Spg7 (Paraplegin)
- induced reporter light, run 1, well a: 1.01e5
- induced reporter light, run 1, well b: 87435
- control promoter light, run 1, well a: 1.38e5
- control promoter light, run 1, well b: 1.70e5
- uninduced reporter light, run 1, well a: 8465
- Outcome: inactive

GNBP2 (Gram-negative bacteria binding protein 2)
- induced reporter light, run 1, well a: 1.56e5
- induced reporter light, run 1, well b: 1.13e5
- control promoter light, run 1, well a: 95580
- control promoter light, run 1, well b: 89530
- uninduced reporter light, run 1, well a: 9530
- Outcome: inactive
